# Source: paper PMC9879932
# Amino acid sequences for entries named in this document (tags omitted).
# UniProt P62195: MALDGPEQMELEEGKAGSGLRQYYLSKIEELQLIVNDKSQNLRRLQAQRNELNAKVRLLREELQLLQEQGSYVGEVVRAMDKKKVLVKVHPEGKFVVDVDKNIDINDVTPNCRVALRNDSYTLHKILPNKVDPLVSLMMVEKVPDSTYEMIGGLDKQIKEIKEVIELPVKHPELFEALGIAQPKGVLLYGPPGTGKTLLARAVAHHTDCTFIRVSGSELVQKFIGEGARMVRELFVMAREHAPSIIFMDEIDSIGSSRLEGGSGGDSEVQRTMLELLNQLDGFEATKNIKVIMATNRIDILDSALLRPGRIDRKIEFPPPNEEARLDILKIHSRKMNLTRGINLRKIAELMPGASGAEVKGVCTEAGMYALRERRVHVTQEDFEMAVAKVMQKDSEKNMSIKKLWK
# UniProt O95071: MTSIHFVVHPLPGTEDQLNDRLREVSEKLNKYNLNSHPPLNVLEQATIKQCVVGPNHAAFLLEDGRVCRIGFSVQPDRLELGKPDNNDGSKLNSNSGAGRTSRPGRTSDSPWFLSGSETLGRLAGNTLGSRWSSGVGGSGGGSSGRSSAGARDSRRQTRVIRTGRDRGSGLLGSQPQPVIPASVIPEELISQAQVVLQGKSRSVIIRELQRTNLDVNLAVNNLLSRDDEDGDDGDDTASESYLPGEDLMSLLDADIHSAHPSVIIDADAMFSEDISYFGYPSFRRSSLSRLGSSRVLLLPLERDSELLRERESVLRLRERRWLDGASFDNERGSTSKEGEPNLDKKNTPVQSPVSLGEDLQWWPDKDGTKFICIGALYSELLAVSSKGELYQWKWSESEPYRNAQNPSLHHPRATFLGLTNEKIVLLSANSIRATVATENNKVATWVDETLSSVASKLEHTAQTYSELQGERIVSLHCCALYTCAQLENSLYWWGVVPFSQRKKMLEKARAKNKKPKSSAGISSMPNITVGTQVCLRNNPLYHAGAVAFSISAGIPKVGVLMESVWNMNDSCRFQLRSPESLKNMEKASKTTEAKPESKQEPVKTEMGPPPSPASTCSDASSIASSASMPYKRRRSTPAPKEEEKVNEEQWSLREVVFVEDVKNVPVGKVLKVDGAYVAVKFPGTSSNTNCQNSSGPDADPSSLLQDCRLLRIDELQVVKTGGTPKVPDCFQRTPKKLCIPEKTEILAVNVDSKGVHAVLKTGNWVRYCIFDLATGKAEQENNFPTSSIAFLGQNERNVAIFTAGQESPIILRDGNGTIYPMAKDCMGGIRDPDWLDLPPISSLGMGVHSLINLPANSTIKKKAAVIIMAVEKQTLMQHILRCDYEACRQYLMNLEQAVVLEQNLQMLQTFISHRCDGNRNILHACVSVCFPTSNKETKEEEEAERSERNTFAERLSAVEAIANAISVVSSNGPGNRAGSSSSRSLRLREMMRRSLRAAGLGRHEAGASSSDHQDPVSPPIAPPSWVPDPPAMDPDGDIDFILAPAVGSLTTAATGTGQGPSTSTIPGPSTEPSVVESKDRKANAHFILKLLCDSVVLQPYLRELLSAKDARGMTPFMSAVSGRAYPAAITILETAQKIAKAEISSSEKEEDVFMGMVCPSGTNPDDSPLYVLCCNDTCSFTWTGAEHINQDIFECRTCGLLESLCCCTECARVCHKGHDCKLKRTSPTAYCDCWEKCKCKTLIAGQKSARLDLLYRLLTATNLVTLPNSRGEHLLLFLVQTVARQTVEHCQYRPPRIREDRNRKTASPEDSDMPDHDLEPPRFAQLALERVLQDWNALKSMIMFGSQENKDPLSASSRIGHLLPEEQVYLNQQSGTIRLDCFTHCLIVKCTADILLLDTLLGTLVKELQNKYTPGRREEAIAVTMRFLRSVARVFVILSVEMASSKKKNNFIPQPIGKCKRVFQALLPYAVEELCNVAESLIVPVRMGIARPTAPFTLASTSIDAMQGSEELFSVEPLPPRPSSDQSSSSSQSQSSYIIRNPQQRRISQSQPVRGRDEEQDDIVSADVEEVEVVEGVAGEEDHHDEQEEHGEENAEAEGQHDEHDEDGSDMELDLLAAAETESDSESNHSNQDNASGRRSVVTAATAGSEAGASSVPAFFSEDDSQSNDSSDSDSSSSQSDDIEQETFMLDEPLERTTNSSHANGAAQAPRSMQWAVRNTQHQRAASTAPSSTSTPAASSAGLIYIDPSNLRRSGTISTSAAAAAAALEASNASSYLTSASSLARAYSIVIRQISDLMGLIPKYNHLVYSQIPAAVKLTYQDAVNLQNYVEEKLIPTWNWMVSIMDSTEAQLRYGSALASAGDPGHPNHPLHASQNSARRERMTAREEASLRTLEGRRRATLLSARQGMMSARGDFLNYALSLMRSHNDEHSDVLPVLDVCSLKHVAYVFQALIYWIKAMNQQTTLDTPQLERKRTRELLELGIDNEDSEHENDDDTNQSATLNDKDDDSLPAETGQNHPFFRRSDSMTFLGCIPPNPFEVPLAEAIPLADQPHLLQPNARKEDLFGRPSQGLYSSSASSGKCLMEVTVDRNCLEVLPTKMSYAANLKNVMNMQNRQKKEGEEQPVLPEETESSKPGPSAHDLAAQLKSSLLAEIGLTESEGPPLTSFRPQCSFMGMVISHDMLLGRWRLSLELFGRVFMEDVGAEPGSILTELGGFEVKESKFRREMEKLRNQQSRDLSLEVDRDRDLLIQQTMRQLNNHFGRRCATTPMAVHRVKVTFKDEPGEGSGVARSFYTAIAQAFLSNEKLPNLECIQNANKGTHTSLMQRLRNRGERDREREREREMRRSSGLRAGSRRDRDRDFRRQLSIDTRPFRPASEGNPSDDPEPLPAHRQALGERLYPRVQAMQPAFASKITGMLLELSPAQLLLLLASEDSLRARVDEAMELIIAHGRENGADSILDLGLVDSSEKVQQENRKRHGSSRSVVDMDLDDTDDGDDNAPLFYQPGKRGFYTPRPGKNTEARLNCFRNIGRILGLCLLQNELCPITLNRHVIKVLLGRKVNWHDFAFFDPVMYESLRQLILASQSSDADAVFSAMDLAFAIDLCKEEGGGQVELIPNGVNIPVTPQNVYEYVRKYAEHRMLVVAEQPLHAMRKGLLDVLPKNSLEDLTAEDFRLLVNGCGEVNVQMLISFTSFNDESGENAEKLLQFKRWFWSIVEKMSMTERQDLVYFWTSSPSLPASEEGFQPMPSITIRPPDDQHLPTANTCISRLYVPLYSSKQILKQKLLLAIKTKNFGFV
# Results are given in words; binding and its absence hold for the method and conditions named. Binding seen in cells or lysates may run through a third protein. Here binding means that the protein was enriched with, or labelled near, the bait; the list need not be complete. Sequences can lack the tags named with a protein.
# T1: GFP-USP49Long (pEGFP-USP49Long) (UniProt Q70CQ1)
# T1 sequence: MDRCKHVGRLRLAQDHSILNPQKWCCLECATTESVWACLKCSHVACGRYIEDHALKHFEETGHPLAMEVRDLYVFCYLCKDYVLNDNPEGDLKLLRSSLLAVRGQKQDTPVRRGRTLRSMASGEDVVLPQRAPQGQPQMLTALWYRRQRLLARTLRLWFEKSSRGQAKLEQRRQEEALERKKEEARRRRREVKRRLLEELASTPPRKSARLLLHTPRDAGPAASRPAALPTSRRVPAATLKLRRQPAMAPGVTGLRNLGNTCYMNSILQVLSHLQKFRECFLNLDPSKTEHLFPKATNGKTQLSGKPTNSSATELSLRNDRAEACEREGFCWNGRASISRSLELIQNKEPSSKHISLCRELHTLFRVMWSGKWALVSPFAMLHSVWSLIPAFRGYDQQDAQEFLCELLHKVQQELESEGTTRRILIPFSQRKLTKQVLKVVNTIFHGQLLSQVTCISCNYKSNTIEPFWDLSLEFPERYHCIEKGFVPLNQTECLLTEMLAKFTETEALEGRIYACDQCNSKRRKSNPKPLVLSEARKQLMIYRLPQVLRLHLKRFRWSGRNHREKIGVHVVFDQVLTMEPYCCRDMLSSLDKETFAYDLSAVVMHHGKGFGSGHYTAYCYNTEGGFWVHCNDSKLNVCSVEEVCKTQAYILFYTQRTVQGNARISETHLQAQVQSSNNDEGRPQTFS
# Molecular target: T1, GFP-USP49Long (pEGFP-USP49Long)
# Assay: affinity purification with mass spectrometry; HEK-293T transfected with pEGFP-USP49Long, pEGFP-USP49Short or pEGFP empty; lysed in co-IP buffer (150 mM NaCl, 20 mM Tris-HCl pH 7.4, 1% NP-40, 1 mM MgCl2); anti-GFP-conjugated Dynabeads 1 h at 4 C; nano-LC-MS, peptide counting
row,Molecule,binding
1,PRS8 (endogenous) (from UniProt P62195 1-406),binds
2,"PPM1G (endogenous) (enzyme, UniProt O15355 1-546) MGAYLSQPNTVKCSGDGVGAPRLPLPYGFSAMQGWRVSMEDAHNCIPELDSETAMFSVYDGHGGEEVALYCAKYLPDIIKDQKAYKEGKLQKALEDAFLAIDAKLTTEEVIKELAQIAGRPTEDEDEKEKVADEDDVDNEEAALLHEEATMTIEELLTRYGQNCHKGPPHSKSGGGTGEEPGSQGLNGEAGPEDSTRETPSQENGPTAKAYTGFSSNSERGTEAGQVGEPGIPTGEAGPSCSSASDKLPRVAKSKFFEDSEDESDEAEEEEEDSEECSEEEDGYSSEEAENEEDEDDTEEAEEDDEEEEEEMMVPGMEGKEEPGSDSGTTAVVALIRGKQLIVANAGDSRCVVSEAGKALDMSYDHKPEDEVELARIKNAGGKVTMDGRVNGGLNLSRAIGDHFYKRNKNLPPEEQMISALPDIKVLTLTDDHEFMVIACDGIWNVMSSQEVVDFIQSKISQRDENGELRLLSSIVEELLDQCLAPDTSGDGTGCDNMTCIIICFKPRNTAELQPESGKRKLEEVLSTEGAEENGNSDKKKKAKRD",binds
3,"CETN3 (endogenous) (protein, UniProt O15182 1-167) MSLALRSELVVDKTKRKKRRELSEEQKQEIKDAFELFDTDKDEAIDYHELKVAMRALGFDVKKADVLKILKDYDREATGKITFEDFNEVVTDWILERDPHEEILKAFKLFDDDDSGKISLRNLRRVARELGENMSDEELRAMIEEFDKDGDGEINQEEFIAIMTGDI",binds

# Results, then the molecule that gave them:
row,binding,Molecule
1,binds,UBR5 (endogenous) (from UniProt O95071 1-2799)
2,binds,"USP44 (endogenous) (enzyme, UniProt Q9H0E7 1-712) MLAMDTCKHVGQLQLAQDHSSLNPQKWHCVDCNTTESIWACLSCSHVACGRYIEEHALKHFQESSHPVALEVNEMYVFCYLCDDYVLNDNTTGDLKLLRRTLSAIKSQNYHCTTRSGRFLRSMGTGDDSYFLHDGAQSLLQSEDQLYTALWHRRRILMGKIFRTWFEQSPIGRKKQEEPFQEKIVVKREVKKRRQELEYQVKAELESMPPRKSLRLQGLAQSTIIEIVSVQVPAQTPASPAKDKVLSTSENEISQKVSDSSVKRRPIVTPGVTGLRNLGNTCYMNSVLQVLSHLLIFRQCFLKLDLNQWLAMTASEKTRSCKHPPVTDTVVYQMNECQEKDTGFVCSRQSSLSSGLSGGASKGRKMELIQPKEPTSQYISLCHELHTLFQVMWSGKWALVSPFAMLHSVWRLIPAFRGYAQQDAQEFLCELLDKIQRELETTGTSLPALIPTSQRKLIKQVLNVVNNIFHGQLLSQVTCLACDNKSNTIEPFWDLSLEFPERYQCSGKDIASQPCLVTEMLAKFTETEALEGKIYVCDQCNSKRRRFSSKPVVLTEAQKQLMICHLPQVLRLHLKRFRWSGRNNREKIGVHVGFEEILNMEPYCCRETLKSLRPECFIYDLSAVVMHHGKGFGSGHYTAYCYNSEGGFWVHCNDSKLSMCTMDEVCKAQAYILFYTQRVTENGHSKLLPPELLLGSQHPNEDADTSSNEILS"
3,binds,"RPN1 (endogenous) (protein, UniProt P04843 24-607) ASSEAPPLINEDVKRTVDLSSHLAKVTAEVVLAHLGGGSTSRATSFLLALEPELEARLAHLGVQVKGEDEEENNLEVRETKIKGKSGRFFTVKLPVALDPGAKISVIVETVYTHVLHPYPTQITQSEKQFVVFEGNHYFYSPYPTKTQTMRVKLASRNVESYTKLGNPTRSEDLLDYGPFRDVPAYSQDTFKVHYENNSPFLTITSMTRVIEVSHWGNIAVEENVDLKHTGAVLKGPFSRYDYQRQPDSGISSIRSFKTILPAAAQDVYYRDEIGNVSTSHLLILDDSVEMEIRPRFPLFGGWKTHYIVGYNLPSYEYLYNLGDQYALKMRFVDHVFDEQVIDSLTVKIILPEGAKNIEIDSPYEISRAPDELHYTYLDTFGRPVIVAYKKNLVEQHIQDIVVHYTFNKVLMLQEPLLVVAAFYILFFTVIIYVRLDFSITKDPAAEARMKVACITEQVLTLVNKRIGLYRHFDETVNRYKQSRDISTLNSGKKSLETEHKALTSEIALLQSRLKTEGSDLCDRVSEMQKLDAQVKELVLKSAVEAERLVAGKLKKDTYIENEKLISGKRQELVTKIDHILDAL"
